From patent publication US20040072183A1, “Adhesive protein and uses thereof” (priority 2000, published 2004)

Tested on: human skin
Assay: Ability to attach 1 cm^2 samples of KIM wipe paper or latex to human skin (forearm)
Parameters: key to Attachment of LATEX to human skin / Attachment of KIM Wipe to human skin: none (−); very weak (+/−); weak (+); strong (++); very strong (+++)
[1] = Experiment II, samples observed for 20 minutes

SMILES: O [Water]
- Time to detachment of LATEX sample from human skin (Experiment I, sample detached on its own): 10 min
- Attachment of KIM Wipe to human skin (Experiment I, samples observed for 60 minutes, removed with forceps): +
- Attachment of KIM Wipe to human skin [1]: +
- Attachment of LATEX to human skin [1]: +/−
- Time to detachment of KIM Wipe sample from human skin (Experiment III, sample detached on its own): 4 min
- Attachment of LATEX to human skin (Experiment III, samples observed for 20 minutes): +/−
